From publication PMC6381796 come the findings set out here.

The subject of data set [1] is DmCMG helicase (Cdc45-Mcm2-7-GINS) (Drosophila melanogaster). Nature of the data set: competition (trap of free helicase, fluorescence unwinding read-out). The conditions noted are these: 1.5 uM oligo, ATP, CMG not pre-loaded on fork; CMG: 25 mM HEPES pH 7.5, 5 mM NaCl, 10 mM Mg acetate, 5 mM DTT, 0.1 mg/ml BSA, loading with 0.1 mM ATPgS at 37 C, fluorescence read at 25 C; recombinant protein; single-stranded DNA.

The target in data set [2] is T1, HpaII methyltransferase (M.HpaII) (UniProt P15446).
T1 sequence (looked up, limits assumed): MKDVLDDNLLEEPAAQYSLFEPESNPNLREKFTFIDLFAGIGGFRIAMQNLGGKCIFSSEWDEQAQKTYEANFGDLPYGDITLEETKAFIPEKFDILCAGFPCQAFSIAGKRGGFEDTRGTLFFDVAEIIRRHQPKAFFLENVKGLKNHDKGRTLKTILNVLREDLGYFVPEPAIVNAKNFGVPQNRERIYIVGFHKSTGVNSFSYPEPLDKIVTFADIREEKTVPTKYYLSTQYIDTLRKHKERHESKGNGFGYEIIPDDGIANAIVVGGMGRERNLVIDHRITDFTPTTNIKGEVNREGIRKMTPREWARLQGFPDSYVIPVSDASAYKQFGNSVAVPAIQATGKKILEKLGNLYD
Nature of the data set: covalent 5FdC trapping; thermal duplex stability on native PAGE. The conditions noted are these: covalent complex, S-adenosylmethionine in conjugation, duplex resistant to heat up to at least 60 C; 5-fluoro-2'-deoxycytidine at position 9 of strand 1; 5'-phosphate on strand 1; CMG: 25 mM HEPES pH 7.5, 5 mM NaCl, 10 mM Mg acetate, 5 mM DTT, 0.1 mg/ml BSA, loading with 0.1 mM ATPgS at 37 C, fluorescence read at 25 C; commercial protein; label: 5'-Cy5 on strand 2.

The exact form of at least one protein or probe is not confirmed. For some assays here: Tags and fusion partners may be left off the protein sequences shown.

“TTTTTTTTTTTTTTTTTTTTTTTTTTTTTTTTTTTTTTTT [Oligo-5 (dT40)]”: the binding result in data set [1] was “binds”.

With “TCAGCATCCGGTACC / GGGTACCGGATGCTGT [Duplex-5FdC (Oligo-Fluo-1 / Oligo-Cy5-5)]”, in data set [2], the binding result was “binds”.
